Taken from: PubChem BioAssay AID504793 (Drosophila RNAi Screening Center, 2011)
The deposit covers about 23,000 reagents; below is an unselected part of those that have a named target and a result. In the full data, 62 (0.27%) were called active. 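Calls come from follow-up tests whose scores are not deposited, so confirmed genes may have low counts here; counts are not normalised per plate.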 Raw values vary from plate to plate and are shown uncorrected.

Test: 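Whole-genome screen for parts of the DNA damage checkpoint at G2/M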 (primary screen)
Cells: Drosophila S2R+ cells
Reagent: long dsRNA against Drosophila genes, about 0.25 µg dsRNA per well
Time to read-out: 4 days of dsRNA, then 4 hours of drug before read-out
Challenge: doxorubicin 0.5 µM for 4 hours to cause double-strand breaks, in cells also given a low, harmless dose of dsRNA against nbs to sensitise the assay
Read-out: 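Mitotic index as the number of phospho-histone H3-positive cells in each well following doxorubicin, given as raw counts without normalisation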
Reading the numbers: mitotic cells: higher = more cells in mitosis, weaker G2 arrest
Rule for the call: 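Genes are called active only when high mitotic counts were reproduced with independent dsRNAs and mitosis was checked for delay without damage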
Meaning of the calls: active = confirmed in follow-up tests; inactive = not confirmed

target gene | amplicon | mitotic cells, replicate 1 | mitotic cells, replicate 2 | activity call
Cyp304a1 (GeneID 41586) | DRSC16623 | 8 | – | inactive
Cyp313a3 (GeneID 41488) | DRSC16626 | 5 | – | inactive
Or74a (GeneID 39929) | DRSC11245 | 9 | – | inactive
Sema1b (GeneID 37007) | DRSC07550 | 5 | – | inactive
Sema1b (GeneID 37007) | DRSC27552 | 11 | – | inactive
CG5800 (GeneID 32742) | DRSC19962 | 15 | – | inactive
CG5800 (GeneID 32742) | DRSC28009 | 3 | – | inactive
Gadd45 (GeneID 35646) | DRSC06033 | 1 | – | inactive
asrij (GeneID 37637) | DRSC04175 | 2 | – | inactive
CG9147 (GeneID 33855) | DRSC03147 | 5 | – | inactive
CG9147 (GeneID 33855) | DRSC27889 | 21 | – | inactive
Cog2 (GeneID 41870) | DRSC16987 | 5 | – | inactive
CG43066 (GeneID 37129) | DRSC06927 | 7 | 13 | inactive
CG43066 (GeneID 37129) | DRSC26570 | 2 | – | inactive
CG16903 (GeneID 31178) | DRSC18561 | 6 | – | inactive
CG6108 (retired record) (GeneID 34733) | DRSC02929 | 5 | – | inactive
dpr8 (GeneID 32387) | DRSC19406 | 16 | – | inactive
dpr8 (GeneID 32387) | DRSC19600 | 7 | – | inactive
dpr8 (GeneID 32387) | DRSC19938 | 11 | – | inactive
dpr8 (GeneID 32387) | DRSC19939 | 14 | – | inactive
CG18476 (GeneID 41404) | DRSC15281 | 7 | – | inactive
Nf1 (GeneID 43149) | DRSC16758 | 8 | – | inactive
Nf1 (GeneID 43149) | DRSC29934 | 14 | – | inactive
Peritrophin-15b (GeneID 50432) | DRSC02266 | 5 | – | inactive
Ugt37B1 (GeneID 53584) | DRSC03225 | 8 | – | inactive
CG4678 (GeneID 32652) | DRSC19911 | 14 | – | inactive
CG4678 (GeneID 32652) | DRSC19912 | 8 | – | inactive
Mapmodulin (GeneID 37043) | DRSC06956 | 7 | – | inactive
Hsl (GeneID 37289) | DRSC06028 | 12 | – | inactive
mRpL36 (GeneID 59151) | DRSC10337 | 2 | – | inactive
SoYb (GeneID 34331) | DRSC02901 | 1 | – | inactive
Gycalpha99B (GeneID 43493) | DRSC16690 | 9 | – | inactive
Gycalpha99B (GeneID 43493) | DRSC24782 | 4 | – | inactive
CG5521 (GeneID 43242) | DRSC15828 | 10 | – | inactive
CG5521 (GeneID 43242) | DRSC30087 | 3 | – | inactive
CG15880 (GeneID 33257) | DRSC00474 | 3 | – | inactive
Osi13 (GeneID 40769) | DRSC12281 | 8 | – | inactive
zetaCOP (GeneID 39862) | DRSC11412 | 13 | – | inactive
SCCRO4 (GeneID 40231) | DRSC10671 | 7 | – | inactive
CG7194 (GeneID 38933) | DRSC10784 | 4 | – | inactive
CG13040 (GeneID 39804) | DRSC09921 | 1 | – | inactive
CG13040 (GeneID 39804) | DRSC28429 | 14 | – | inactive
CG31231 (GeneID 318638) | DRSC13308 | 10 | – | inactive
CG31231 (GeneID 318638) | DRSC28440 | 1 | – | inactive
sw (GeneID 44160) | DRSC20388 | 18 | – | inactive
Rtca (GeneID 31175) | DRSC18517 | 5 | – | inactive
CG30430 (GeneID 246610) | DRSC22260 | 12 | – | inactive
CG42266 (GeneID 7354431) | DRSC21577 | 9 | – | inactive
CG42266 (GeneID 7354431) | DRSC21957 | 14 | – | inactive
CG42266 (GeneID 7354431) | DRSC29782 | 4 | – | inactive
Rrp45 (GeneID 32665) | DRSC20198 | 14 | – | inactive
Rrp45 (GeneID 32665) | DRSC29319 | 5 | – | inactive
speck (GeneID 37867) | DRSC04608 | 3 | – | inactive
speck (GeneID 37867) | DRSC27654 | 7 | – | inactive
PolD2 (GeneID 38228) | DRSC08147 | 6 | – | inactive
tho2 (GeneID 326153) | DRSC00646 | 11 | – | inactive
tho2 (GeneID 326153) | DRSC28626 | 5 | – | inactive
htk (GeneID 32877) | DRSC20029 | 4 | – | inactive
htk (GeneID 32877) | DRSC20031 | 7 | – | inactive
htk (GeneID 32877) | DRSC27508 | 13 | – | inactive
LIMK1 (GeneID 32207) | DRSC19811 | 3 | – | inactive
CG10343 (GeneID 35127) | DRSC02041 | 1 | – | inactive
CG10343 (GeneID 35127) | DRSC27740 | 6 | – | inactive
insc (GeneID 37355) | DRSC04695 | 7 | – | inactive
CG13297 (GeneID 38711) | DRSC09971 | 5 | – | inactive
Ac76E (GeneID 40180) | DRSC09642 | 3 | – | inactive
Ac76E (GeneID 40180) | DRSC09662 | 8 | – | inactive
CG14840 (GeneID 41734) | DRSC14964 | 6 | – | inactive
CG14840 (GeneID 41734) | DRSC27978 | 8 | – | inactive
APC4 (GeneID 31835) | DRSC18360 | 51 | – | inactive
APC4 (GeneID 31835) | DRSC29994 | 91 | – | inactive
trk (GeneID 34376) | DRSC03625 | 1 | – | inactive
Cipc (GeneID 43177) | DRSC14898 | 3 | – | inactive
Cipc (GeneID 43177) | DRSC14900 | 8 | – | inactive
CG14715 (GeneID 41403) | DRSC14938 | 7 | – | inactive
